Measured values taken from paper doi:10.1101/2023.11.29.569239.
Construct, isoform or probe ends are uncertain for at least one entry. For some of these results: A weaker result is weaker than the reference pair of the same experiment.

Chains of the proteins cited; added tags and fusions are not shown. Lines headed by an entry give the natural chain unless they say otherwise; changes in a name come on top.
UniProt O00571: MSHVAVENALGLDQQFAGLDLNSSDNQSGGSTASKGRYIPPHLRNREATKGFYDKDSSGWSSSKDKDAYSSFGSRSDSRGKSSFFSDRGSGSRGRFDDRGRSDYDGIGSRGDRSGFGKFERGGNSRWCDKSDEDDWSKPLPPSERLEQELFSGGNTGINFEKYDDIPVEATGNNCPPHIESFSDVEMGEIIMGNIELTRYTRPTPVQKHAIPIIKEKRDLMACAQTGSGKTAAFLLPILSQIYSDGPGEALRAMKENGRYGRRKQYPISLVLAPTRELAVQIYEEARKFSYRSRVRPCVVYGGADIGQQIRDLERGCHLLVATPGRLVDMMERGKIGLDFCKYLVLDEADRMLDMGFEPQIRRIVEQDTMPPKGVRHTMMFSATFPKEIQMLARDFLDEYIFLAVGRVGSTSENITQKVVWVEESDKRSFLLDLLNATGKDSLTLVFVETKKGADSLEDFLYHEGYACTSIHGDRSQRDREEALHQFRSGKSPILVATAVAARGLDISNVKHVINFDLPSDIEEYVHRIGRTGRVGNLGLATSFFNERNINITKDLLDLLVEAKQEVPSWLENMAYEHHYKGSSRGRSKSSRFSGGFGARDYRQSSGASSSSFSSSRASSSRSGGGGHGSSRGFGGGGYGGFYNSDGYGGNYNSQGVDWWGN
UniProt O15523: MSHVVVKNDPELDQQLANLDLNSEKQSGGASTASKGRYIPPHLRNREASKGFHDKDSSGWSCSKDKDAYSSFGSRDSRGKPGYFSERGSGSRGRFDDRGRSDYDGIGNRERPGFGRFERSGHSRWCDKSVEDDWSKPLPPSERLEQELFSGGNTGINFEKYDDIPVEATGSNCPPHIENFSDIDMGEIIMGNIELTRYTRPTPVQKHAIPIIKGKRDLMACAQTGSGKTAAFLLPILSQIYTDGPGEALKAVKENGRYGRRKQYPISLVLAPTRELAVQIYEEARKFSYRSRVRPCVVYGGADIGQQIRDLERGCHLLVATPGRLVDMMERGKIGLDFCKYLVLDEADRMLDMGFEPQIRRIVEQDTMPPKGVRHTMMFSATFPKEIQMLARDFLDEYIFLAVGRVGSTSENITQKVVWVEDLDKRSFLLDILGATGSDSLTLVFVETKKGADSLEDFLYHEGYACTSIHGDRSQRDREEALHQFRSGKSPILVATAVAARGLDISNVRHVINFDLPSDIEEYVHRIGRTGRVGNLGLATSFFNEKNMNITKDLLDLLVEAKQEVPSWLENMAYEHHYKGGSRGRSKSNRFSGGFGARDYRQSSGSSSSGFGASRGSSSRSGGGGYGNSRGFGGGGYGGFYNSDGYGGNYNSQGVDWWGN

Columns and labels:
Assay in all cases: EMSA
MBP-ΔC DDX3X = MBP-ΔC DDX3X (UniProt O00571); settings: 2 mM Mg2+, insignificant Kd change
MBP-ΔC DDX3Y = MBP-ΔC DDX3Y (UniProt O15523); settings: 2 mM Mg2+, insignificant Kd change
MBP-ΔN DDX3X = MBP-ΔN DDX3X (UniProt O00571); settings: 2 mM Mg2+, Kd significantly increased
MBP-ΔN DDX3Y = MBP-ΔN DDX3Y (UniProt O15523); settings: 2 mM Mg2+, small, insignificant Kd increase

## ACCGCUGCCGUCGCUCCG / UUUUUUUUUUUUUUUUUUUUUUUUCGGAGCGACGGCAGCGGU [dsRNA I (18-mer/42-mer)]
MBP-ΔC DDX3X
  binding result: binds
MBP-ΔC DDX3Y
  binding result: binds
MBP-ΔN DDX3X
  binding result: binds more weakly
MBP-ΔN DDX3Y
  binding result: binds
